The target of test [1] is human hepsin (recombinant EE-tagged, amino acids 45-417, enzymatically active two-chain form) (human) (UniProt P05981). The test is described as follows: SPR, antibody immobilised on CM5 chip, 50 nM hepsin added. (In SPR one partner is held on a chip, and binding of the other changes the refractive index at the surface.)
The target is the same in test [2]. The test is described as follows: SPR, 50 nM 2.3.35 injected on hepsin held by immobilised 2.7.35 or 2.14.5.
For test [3] the target is unchanged. The test is described as follows: complex formation, checked by size exclusion chromatography and SDS-PAGE; crystallised. (In general: SEC sorts molecules by how far they enter the pores of the column.)
Test [4] shares this target. Nature of the test: SPR, antibody captured on Protein A, hepsin 0-200 nM injected, 37 C.
Test [5] shares this target. Nature of the test: SPR, antibody captured on Protein G, hepsin 0-200 nM injected, 37 C.
Test [6] has the same target. The test is described as follows: SPR, 50 nM 2.7.35 injected on hepsin held by immobilised 2.3.35 or 2.14.5.

The chains behind the UniProt entries cited, without tags or fusion partners. Where a name states a change or a piece, a line headed by the entry shows the natural chain unless it says otherwise. A line that says so, or that is headed by a name, gives the form on record, which may keep a tag or linker.
human hepsin (recombinant EE-tagged, amino acids 45-417, enzymatically active two-chain form) (P05981, form named): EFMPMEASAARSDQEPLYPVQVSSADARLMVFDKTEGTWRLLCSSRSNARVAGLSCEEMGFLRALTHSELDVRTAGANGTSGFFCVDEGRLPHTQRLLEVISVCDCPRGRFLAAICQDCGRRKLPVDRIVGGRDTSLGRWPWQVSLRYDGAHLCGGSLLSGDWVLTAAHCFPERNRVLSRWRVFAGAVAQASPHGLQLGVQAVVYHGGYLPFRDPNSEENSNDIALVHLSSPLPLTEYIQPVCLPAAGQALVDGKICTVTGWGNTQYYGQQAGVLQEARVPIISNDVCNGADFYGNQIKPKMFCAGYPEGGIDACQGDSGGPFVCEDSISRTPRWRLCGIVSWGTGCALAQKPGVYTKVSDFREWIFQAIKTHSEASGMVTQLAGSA

Results are given in words; binding and its absence hold for the method and conditions named. Some binding calls cover weakened binding; strength is not graded here.

B1: Mab 2.3.35 (antibody, V domains shown)
VH: QVQLQQSGPELVKPGASVKVSCKASGYTFTDFVINWVKQRTGQGLEWIGEIYPRSNSIYSNEKFKGKATLTTDKSSNTAYMQVSSLTSEDSAVYFCARGSGDYAMDYWGQGTSVTVSS
VL: ENVLTQSPAIMSASPGEKVTMTCSASSSVTYMHWYQQKSSTSPKLWIYDTSKLASGVPGRFSGSGSGNSYSLTIRSMEAEDVATYFCFQGSGFPLTFGGGTKLEIK
As for B1, the binding result in test [1] and in test [2] was “binds” throughout.

B2: Mab55-Fab fragment (Fab, V domains shown)
VH: QVQLVQSGSELKKPGASVKVSCKASGYTFTDYSMRWVRQAPGQGLEWMGWINTETGSPTYADDFKGRFVFSLDTSVSTAYLQISSLKAEDTAVYYCARGFAYWGQGTLVTVSS
VL: QTVVTQEPSLTVSPGGTVTLTCRSSTGAVTTSNYANWVQQKPGQAFRGLIGDTNNRAPWTPARFSGSLLGGKAALTLSGVQPEDEAEYYCALWYSNHFIFGSGTKVTVL
On to B2, for which, in test [3], the binding entry is recorded as “binds”.

B3: Mab55 (antibody, V domains shown)
VH: B2 VH
VL: B2 VL
With B3, the binding entry in test [4] was “binds”.

B4: Mab 2.7.35 (antibody, V domains shown)
VH: QIQLVQSGPELKKPGETVKISCKASGYTFTDYSMRWVKQAPGKGLKWMGWINTETGNPTYADDFKGRFAFSLETSASTAYLQINNLKNEDTARYFCARGFAYWGQGTLVTVSA
VL: QAVVTQESALTTSPGETVTLTCRSSTGAVTTSNYANWVQEKPDHLFTGLIGDTNNRAPGVPARFSGSLIGDKAALTITGAQTEDEAIYFCALWYSNHFIFGSGTKVTVL
Regarding B4, the binding entry in test [1], in test [5] and in test [6] was “binds” throughout.

B5: chimeric Mab 2.7.35 (antibody, V domains shown)
VH: B4 VH
VL: B4 VL
Consider B5, for which the binding entry in test [4] is listed as “binds”.

The record behind these values is patent WO2011161189A1.
